This is one part of the list. Most entries show no effect beyond the scatter of the controls.

Amino acid sequences for entries named in this document (tags omitted). A change or cut given only in a name is not applied to a line headed by its entry.
UniProt Q9NR50: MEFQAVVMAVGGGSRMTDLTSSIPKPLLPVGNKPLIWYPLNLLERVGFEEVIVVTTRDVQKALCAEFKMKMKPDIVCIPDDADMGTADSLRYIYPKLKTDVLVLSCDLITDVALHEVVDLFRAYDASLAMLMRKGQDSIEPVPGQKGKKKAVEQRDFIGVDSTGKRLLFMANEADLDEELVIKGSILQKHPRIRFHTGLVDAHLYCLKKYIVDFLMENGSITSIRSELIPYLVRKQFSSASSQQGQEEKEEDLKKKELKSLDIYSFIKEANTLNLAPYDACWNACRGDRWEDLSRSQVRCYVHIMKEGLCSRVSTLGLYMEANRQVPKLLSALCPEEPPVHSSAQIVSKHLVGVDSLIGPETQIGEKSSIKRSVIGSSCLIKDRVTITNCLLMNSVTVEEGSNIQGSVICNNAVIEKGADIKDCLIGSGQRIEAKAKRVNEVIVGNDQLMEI
UniProt Q9NRG0: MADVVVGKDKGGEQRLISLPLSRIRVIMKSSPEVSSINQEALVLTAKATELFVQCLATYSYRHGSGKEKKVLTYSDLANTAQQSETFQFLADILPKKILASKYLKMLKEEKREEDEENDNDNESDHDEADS
UniProt Q9NXR1: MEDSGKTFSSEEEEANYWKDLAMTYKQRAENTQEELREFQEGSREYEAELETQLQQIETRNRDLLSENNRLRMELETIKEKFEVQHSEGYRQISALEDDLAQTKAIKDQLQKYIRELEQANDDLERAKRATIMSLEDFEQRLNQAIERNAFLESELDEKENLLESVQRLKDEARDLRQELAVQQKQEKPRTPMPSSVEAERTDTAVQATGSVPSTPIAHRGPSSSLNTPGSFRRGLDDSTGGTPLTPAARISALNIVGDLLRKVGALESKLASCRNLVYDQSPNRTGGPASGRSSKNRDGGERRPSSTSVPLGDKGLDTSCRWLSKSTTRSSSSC
UniProt Q9NYR9: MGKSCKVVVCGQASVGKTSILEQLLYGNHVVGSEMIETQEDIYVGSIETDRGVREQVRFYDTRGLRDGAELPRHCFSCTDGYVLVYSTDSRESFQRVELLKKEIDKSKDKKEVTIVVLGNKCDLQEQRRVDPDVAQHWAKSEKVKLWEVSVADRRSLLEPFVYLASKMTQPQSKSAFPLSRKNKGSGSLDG
UniProt Q9NR12, whole entry: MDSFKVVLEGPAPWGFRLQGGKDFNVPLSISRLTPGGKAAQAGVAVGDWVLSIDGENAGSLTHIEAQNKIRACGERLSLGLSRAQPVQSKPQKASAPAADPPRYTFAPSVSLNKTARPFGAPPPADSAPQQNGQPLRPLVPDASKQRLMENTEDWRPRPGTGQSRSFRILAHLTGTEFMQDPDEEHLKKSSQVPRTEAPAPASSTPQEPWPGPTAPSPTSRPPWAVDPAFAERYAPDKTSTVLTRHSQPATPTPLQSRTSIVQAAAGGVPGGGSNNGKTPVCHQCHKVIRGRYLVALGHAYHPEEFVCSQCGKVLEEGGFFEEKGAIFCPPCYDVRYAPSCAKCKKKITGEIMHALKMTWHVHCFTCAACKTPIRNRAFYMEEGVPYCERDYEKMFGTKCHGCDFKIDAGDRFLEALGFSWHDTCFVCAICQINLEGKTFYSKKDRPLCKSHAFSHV
UniProt Q9NR46: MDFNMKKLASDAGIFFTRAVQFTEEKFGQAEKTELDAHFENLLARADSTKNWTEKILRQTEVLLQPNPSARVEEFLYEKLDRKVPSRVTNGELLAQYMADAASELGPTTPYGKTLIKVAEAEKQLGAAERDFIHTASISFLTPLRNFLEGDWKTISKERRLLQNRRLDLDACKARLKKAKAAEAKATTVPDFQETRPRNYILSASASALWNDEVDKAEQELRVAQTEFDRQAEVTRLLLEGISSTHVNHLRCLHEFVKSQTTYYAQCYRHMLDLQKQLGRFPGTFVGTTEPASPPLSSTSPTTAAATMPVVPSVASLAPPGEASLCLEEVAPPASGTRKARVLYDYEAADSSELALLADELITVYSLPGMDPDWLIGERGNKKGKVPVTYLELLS
UniProt Q9NZ32, whole entry: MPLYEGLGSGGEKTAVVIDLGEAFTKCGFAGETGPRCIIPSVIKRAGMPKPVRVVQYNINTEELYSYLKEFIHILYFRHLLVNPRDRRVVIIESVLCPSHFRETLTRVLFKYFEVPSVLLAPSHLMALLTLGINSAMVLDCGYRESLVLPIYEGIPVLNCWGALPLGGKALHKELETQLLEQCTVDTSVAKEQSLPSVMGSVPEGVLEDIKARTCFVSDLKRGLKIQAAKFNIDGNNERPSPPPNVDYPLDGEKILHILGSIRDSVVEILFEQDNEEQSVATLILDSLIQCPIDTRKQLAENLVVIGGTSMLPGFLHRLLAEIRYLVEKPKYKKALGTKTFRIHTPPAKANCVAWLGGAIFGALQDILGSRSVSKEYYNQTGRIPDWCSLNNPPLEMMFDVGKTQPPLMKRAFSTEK
UniProt Q9NSI2: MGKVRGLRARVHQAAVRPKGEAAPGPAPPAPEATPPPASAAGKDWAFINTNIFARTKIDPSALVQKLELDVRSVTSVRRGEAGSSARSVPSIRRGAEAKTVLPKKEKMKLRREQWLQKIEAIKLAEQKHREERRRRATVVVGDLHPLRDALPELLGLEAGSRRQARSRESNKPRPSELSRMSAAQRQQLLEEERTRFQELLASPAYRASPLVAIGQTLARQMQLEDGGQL
UniProt Q9NUL7: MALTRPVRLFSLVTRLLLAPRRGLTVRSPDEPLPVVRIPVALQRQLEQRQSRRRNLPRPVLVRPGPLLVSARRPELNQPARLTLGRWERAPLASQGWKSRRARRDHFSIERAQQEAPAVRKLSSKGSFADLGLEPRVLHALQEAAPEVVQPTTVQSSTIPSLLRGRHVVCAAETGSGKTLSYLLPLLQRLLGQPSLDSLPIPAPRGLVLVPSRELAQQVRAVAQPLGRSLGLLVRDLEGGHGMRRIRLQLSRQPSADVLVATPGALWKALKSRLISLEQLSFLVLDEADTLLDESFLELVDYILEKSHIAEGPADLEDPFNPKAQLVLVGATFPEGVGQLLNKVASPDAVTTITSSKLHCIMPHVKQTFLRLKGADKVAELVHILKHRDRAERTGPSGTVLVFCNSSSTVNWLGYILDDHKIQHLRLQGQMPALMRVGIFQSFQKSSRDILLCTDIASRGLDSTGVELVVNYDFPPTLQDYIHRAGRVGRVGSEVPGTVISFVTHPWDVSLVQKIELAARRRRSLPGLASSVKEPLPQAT
UniProt Q9NUP7: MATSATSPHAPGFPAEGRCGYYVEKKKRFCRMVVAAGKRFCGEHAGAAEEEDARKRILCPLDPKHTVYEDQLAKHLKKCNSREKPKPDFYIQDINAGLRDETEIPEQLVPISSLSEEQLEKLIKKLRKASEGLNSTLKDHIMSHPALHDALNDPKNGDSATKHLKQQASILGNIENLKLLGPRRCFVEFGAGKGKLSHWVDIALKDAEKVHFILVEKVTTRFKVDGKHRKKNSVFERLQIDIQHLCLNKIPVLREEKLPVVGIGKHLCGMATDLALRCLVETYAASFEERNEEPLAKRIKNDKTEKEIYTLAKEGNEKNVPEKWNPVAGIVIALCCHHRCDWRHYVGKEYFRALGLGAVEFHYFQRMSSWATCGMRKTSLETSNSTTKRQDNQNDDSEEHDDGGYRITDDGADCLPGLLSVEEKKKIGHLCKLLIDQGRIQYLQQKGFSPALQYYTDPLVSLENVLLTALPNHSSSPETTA
UniProt Q9NWF9: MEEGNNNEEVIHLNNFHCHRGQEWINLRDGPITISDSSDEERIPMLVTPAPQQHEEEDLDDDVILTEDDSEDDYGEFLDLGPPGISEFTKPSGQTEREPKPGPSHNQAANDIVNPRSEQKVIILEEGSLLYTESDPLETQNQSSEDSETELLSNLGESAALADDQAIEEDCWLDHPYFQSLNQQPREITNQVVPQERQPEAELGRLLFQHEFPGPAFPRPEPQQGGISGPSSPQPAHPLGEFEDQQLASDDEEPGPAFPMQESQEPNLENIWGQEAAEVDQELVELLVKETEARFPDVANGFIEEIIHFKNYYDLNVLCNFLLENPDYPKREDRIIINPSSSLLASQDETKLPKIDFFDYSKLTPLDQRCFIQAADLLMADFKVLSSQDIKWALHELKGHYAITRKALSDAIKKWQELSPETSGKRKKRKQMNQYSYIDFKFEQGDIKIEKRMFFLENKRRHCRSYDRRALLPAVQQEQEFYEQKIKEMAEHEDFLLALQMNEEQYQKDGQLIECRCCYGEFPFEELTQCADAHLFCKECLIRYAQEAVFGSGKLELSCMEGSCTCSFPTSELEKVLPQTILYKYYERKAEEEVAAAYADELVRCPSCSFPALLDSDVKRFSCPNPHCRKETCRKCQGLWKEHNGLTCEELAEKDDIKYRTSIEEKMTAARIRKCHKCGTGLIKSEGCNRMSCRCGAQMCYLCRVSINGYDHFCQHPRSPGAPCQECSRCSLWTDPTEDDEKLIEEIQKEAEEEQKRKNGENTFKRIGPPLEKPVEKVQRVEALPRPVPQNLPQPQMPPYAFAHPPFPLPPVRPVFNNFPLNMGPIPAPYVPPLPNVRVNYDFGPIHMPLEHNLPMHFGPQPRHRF
UniProt Q9NVH2, whole entry: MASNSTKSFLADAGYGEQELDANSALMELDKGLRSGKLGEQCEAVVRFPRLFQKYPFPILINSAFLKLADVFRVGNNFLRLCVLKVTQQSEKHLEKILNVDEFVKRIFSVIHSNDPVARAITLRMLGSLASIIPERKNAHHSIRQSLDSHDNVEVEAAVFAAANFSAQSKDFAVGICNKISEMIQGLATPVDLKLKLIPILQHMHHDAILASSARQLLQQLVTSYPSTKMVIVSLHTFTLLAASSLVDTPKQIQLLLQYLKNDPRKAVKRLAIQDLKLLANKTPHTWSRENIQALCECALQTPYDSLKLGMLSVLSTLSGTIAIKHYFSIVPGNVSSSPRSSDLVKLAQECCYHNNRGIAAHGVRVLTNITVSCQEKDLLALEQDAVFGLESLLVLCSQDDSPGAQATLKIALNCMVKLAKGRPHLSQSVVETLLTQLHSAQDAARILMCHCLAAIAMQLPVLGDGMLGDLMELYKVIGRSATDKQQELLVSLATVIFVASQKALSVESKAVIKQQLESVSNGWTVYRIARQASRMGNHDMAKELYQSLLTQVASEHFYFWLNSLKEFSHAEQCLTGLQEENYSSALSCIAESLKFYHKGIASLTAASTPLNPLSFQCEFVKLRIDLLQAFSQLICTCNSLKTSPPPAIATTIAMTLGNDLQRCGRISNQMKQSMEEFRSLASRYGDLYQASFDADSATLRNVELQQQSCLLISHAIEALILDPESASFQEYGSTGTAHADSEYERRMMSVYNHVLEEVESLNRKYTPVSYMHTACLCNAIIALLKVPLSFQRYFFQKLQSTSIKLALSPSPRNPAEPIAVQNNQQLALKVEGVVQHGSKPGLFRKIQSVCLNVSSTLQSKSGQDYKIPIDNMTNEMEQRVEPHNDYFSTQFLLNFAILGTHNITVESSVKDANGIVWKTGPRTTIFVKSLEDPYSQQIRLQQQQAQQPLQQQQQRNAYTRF
UniProt Q9NZ09: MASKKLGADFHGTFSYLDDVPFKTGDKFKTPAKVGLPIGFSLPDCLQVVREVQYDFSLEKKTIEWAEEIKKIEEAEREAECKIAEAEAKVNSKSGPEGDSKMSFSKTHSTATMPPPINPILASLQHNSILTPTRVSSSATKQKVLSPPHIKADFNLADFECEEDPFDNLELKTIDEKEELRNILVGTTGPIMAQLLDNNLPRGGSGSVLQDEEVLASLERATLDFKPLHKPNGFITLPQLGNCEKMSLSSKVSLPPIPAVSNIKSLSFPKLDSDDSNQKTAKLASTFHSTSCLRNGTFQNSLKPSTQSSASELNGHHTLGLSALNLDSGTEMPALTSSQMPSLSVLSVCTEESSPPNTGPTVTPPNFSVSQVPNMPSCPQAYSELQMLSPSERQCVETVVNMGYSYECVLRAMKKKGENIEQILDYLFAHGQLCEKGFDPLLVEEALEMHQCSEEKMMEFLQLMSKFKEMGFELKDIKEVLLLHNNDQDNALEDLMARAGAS
UniProt Q9NVW2: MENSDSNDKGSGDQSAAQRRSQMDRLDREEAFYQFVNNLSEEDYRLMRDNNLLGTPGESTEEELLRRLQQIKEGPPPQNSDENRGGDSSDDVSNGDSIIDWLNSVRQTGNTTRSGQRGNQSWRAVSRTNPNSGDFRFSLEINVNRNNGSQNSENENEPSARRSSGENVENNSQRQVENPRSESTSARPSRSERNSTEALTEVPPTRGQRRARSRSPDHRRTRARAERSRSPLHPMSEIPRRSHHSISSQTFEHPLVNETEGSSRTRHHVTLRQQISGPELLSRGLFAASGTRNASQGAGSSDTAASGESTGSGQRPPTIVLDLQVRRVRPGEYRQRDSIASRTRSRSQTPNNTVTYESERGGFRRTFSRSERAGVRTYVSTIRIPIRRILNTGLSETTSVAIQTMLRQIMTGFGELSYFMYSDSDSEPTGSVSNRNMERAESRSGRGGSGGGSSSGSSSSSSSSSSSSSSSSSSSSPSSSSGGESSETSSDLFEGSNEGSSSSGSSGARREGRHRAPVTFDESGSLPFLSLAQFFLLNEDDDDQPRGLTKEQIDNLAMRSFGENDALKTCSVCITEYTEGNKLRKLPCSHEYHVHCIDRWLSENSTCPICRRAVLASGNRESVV

Compound in the experiment: CN[C@@H]1C[C@H]2O[C@@](C)([C@@H]1OC)n1c3ccccc3c3c4c(c5c6ccccc6n2c5c31)C(=O)NC4 [staurosporine]
Briefly: log2 fold change of tryptic peptide abundance, ligand vs vehicle (limited proteolysis) (log2 ratio); higher = more trypsin-susceptible (destabilized). Particulars: ligand concentration: 20 uM; sample: K562 cleared lysate; digestion: 4 min, 22 C (HT-PELSA RT4min, Orbitrap Astral).
As to “DONSON (peptide sequence: ALSVPGYSPGFR, peptide start residue: 2) (UniProt Q9NYP3)”, the log2 fold change stood at 0.128.
Consider “FAIM (peptide sequence: DAMDVWCNGK, peptide start residue: 116) (UniProt Q9NVQ4)”, for which the log2 fold change was determined as 0.297.
With “EIF2B3 (peptide sequence: LLSALCPEEPPVHSSAQIVSK, peptide start residue: 329) (UniProt Q9NR50)” the figure was 0.444; with “UniProt Q9NUK0 (peptide sequence: WLTLEVCR, peptide start residue: 13)”, -0.125; with “CHRAC1 (peptide sequence: LISLPLSR, peptide start residue: 16) (UniProt Q9NRG0)”, 0.126.
Take “DIAPH3 (peptide sequence: LAESMIQNLIK, peptide start residue: 749) (UniProt Q9NSV4)”: the log2 fold change was found to be 0.221.
Regarding “IFT57 (peptide sequence: GEGTGEVVLER, peptide start residue: 22) (UniProt Q9NWB7)”, the log2 fold change was -0.763.
With “PPP4R2 (peptide sequence: FDKEGEVR, peptide start residue: 250) (UniProt Q9NY27)” the figure was 0.175.
“NDE1 (peptide sequence: RPSSTSVPLGDKGLDTSCR, peptide start residue: 304) (UniProt Q9NXR1)”: the log2 fold change was -0.304.
With “NKIRAS2 (peptide sequence: LWEVSVADRR, peptide start residue: 146) (UniProt Q9NYR9)” the figure was 0.819; with “OXSM (peptide sequence: VSPFFVPK, peptide start residue: 175) (UniProt Q9NWU1)”, 0.204.
On to “ZBTB40 (peptide sequence: VREESLDVQTVVSLLR, peptide start residue: 299) (UniProt Q9NUA8)”, for which the log2 fold change was 0.39.
As for “PDLIM7 (peptide sequence: ASAPAADPPR, peptide start residue: 94) (UniProt Q9NR12)”, the log2 fold change was -0.144.
Take “SH3GLB2 (peptide sequence: NFLEGDWK, peptide start residue: 146) (UniProt Q9NR46)”: the log2 fold change is 0.132.
Regarding “NIT2 (peptide sequence: AVDNQVYVATASPARDDK, peptide start residue: 196) (UniProt Q9NQR4)”, the log2 fold change amounted to 0.546.
For the target “BET1L (peptide sequence: AQSPGAVEEILDRENK, peptide start residue: 7) (UniProt Q9NYM9)”, the log2 fold change was -0.559.
In the case of “ECHDC1 (peptide sequence: DLLGTVWGGPANLEAIAK, peptide start residue: 284) (UniProt Q9NTX5)”, the log2 fold change was found to be 0.357.
“UniProt Q9NXH8 (peptide sequence: SVLEDSALVLQYHAR, peptide start residue: 213)”: the log2 fold change is 0.15.
Take “ACTR10 (peptide sequence: CGFAGETGPR, peptide start residue: 27) (UniProt Q9NZ32)”: the log2 fold change is -0.332.
Under “UniProt Q9NSI2 (peptide sequence: VHQAAVRPK, peptide start residue: 11)” stands 0.0945; under “FAM120C (peptide sequence: AHQLVLPPCDVVIK, peptide start residue: 271) (UniProt Q9NX05)”, 0.0519; under “DDX28 (peptide sequence: GSFADLGLEPR, peptide start residue: 126) (UniProt Q9NUL7)”, -0.203.
On to “UCKL1 (peptide sequence: QAEKSETACEDRSNAESLDR, peptide start residue: 27) (UniProt Q9NWZ5)”, for which the log2 fold change was -1.23.
“SAGE1 (peptide sequence: VVLIQQLEK, peptide start residue: 876) (UniProt Q9NXZ1)”: the log2 fold change came out at 0.169.
On to “UniProt Q9NUP7 (peptide sequence: QDNQNDDSEEHDDGGYR, peptide start residue: 390)”, for which the log2 fold change was found to be 0.235.
For the target “RNF216 (peptide sequence: EITNQVVPQER, peptide start residue: 187) (UniProt Q9NWF9)”, the log2 fold change was -0.143.
Turning to “UTP6 (peptide sequence: RELEIESQTEEQPTTK, peptide start residue: 280) (UniProt Q9NYH9)”, the log2 fold change was -0.978.
On to “MAN2C1 (peptide sequence: GSMIAAPDPEK, peptide start residue: 159) (UniProt Q9NTJ4)”, for which the log2 fold change is -1.05.
Turning to “HOMER3 (peptide sequence: EQPIFSTR, peptide start residue: 6) (UniProt Q9NSC5)”, the log2 fold change stood at 0.359.
Under “TYW1 (peptide sequence: QGYQLIGSHSGVK, peptide start residue: 367) (UniProt Q9NV66)” stands 0.337.
With “CHCHD3 (peptide sequence: VAEELALEQAK, peptide start residue: 66) (UniProt Q9NX63)”, the log2 fold change was -0.339.
With “UniProt Q9NYU2 (peptide sequence: EQLDPDELETITMHK, peptide start residue: 644)” the figure was 0.525; with “INTS7 (peptide sequence: LGEQCEAVVRFPR, peptide start residue: 38) (UniProt Q9NVH2)”, 0.432.
Take “MCM9 (peptide sequence: LALDSEAAVSADKPDSVLTHHVPR, peptide start residue: 823) (UniProt Q9NXL9)”: the log2 fold change is -0.671.
On to “UBAP1 (peptide sequence: EVQYDFSLEKK, peptide start residue: 51) (UniProt Q9NZ09)”, for which the log2 fold change is -0.457.
With “RLIM (peptide sequence: SHHSISSQTFEHPLVNETEGSSR, peptide start residue: 242) (UniProt Q9NVW2)” the figure was 0.586.

The values are drawn from the supplement of paper PMC12819154, “High-throughput peptide-centric local stability assay extends protein–ligand identification to membrane proteins, tissues and bacteria” (Nature Structural & Molecular Biology, 2025).
